The values that follow come from PMC3608632.

Protein sequences, listed by entry. Tags and fused reporters are not part of them. Lines headed by an entry give the natural chain unless they say otherwise; changes in a name come on top. Chains listed by the source or under a name are the forms on record and can include a tag or linker. Residues count along the entry.
UniProt P11387: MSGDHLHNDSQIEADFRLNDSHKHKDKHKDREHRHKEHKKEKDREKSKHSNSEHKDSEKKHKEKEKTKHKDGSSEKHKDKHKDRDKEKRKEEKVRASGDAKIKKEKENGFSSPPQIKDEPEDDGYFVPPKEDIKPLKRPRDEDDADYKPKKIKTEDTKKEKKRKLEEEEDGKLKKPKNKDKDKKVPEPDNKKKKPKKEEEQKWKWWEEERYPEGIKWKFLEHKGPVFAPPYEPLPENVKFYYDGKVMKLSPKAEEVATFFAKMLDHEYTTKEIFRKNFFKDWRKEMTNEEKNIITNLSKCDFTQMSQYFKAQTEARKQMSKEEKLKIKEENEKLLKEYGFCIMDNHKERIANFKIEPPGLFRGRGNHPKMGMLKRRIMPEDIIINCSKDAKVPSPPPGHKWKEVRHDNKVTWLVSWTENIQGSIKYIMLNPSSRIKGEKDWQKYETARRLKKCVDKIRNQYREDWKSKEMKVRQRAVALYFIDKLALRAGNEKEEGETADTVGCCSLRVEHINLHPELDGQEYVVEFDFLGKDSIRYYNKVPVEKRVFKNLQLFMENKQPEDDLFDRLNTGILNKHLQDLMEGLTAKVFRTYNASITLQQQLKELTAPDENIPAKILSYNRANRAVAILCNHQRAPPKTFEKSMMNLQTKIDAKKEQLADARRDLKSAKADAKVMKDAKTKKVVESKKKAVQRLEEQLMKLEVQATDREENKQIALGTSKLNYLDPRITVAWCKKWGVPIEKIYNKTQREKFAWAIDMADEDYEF
His/FLAG-tagged topo I deletion construct 4, expressed in 293T cells: residues 1-636 of P11387
His/FLAG-tagged topo I core region, residues 216-636 (construct 7), expressed in H358 cells: residues 216-636 of P11387
His/FLAG-tagged topo I residues 501-765 (construct 8), expressed in H358 cells: residues 501-765 of P11387
UniProt Q8N726: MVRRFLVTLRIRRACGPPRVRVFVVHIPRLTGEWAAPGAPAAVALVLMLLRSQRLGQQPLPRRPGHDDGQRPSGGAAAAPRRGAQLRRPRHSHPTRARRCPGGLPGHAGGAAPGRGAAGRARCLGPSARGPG

No constants are given. Whether binding was seen depends on the method and setting. For some of these results: In cells and extracts the contact can be indirect. Some binding calls cover weakened binding; strength is not graded here.

Assay [1] deals with His/FLAG-tagged topo I deletion construct 4, expressed in H358 cells (human) (UniProt P11387). The assay can be described thus: co-IP; H358 cells treated with Adp14 (20 moi) and transfected with His/FLAG topo I constructs 1-9; lysed 2 days later in high salt buffer (400 mM NaCl), adjusted to 150 mM salt; mouse anti-FLAG M2 IP overnight at 4°C; ARF Western.
The target of assay [2] is His/FLAG-tagged topo I residues 501-765 (construct 8), expressed in H358 cells (human) (UniProt P11387). The description is as above.
Assay [3] addresses His/FLAG-tagged topo I core region, residues 216-636 (construct 7), expressed in H358 cells (human) (UniProt P11387). Described as above.
For assay [4], the target named is His/FLAG-tagged topo I deletion construct 4, expressed in 293T cells (human) (UniProt P11387). The assay can be described thus: co-IP; topo I constructs 1-6 from 293T cells selected on cobalt-agarose, eluted, mixed with 3 µg bacterially expressed recombinant human ARF in 20 mM Tris pH 8, 150 mM NaCl, 10% glycerol, 1% NP40, 2 mM EDTA; FLAG IP; ARF Western; both purified.

On to “p14 Alternate Reading Frame protein (ARF) in H358 cells (from UniProt Q8N726 1-132)”, for which the binding entry in assay [1] is “binds”; in assay [2], “no binding”; in assay [3], “binds”.

As to “recombinant thioredoxin-human ARF fusion protein (from UniProt Q8N726 1-132)”, the binding result in assay [4] is recorded as “binds”.
